We go through 61 compounds from PubChem BioAssay AID493014 (National Center for Advancing Translational Sciences (NCATS), 2011).

This experiment is described as follows: qHTS Assay to Find Inhibitors of Chronic Active B-Cell Receptor Signaling. As to conditions: ABC-DLBCL IkBa-CBG/CBR reporter, luminescence ratio (green luciferase fused to IkBa over red control in TMD8 lymphoma cells), 4 h. In a few lines:
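Doxycycline induced both beetle luciferases in TMD8 lymphoma cells; IKK-driven degradation limits the IkappaBalpha-fused green signal, while red luminescence normalises for cell number and nonspecific effects. Compounds tested up to 46 uM, 4 hrs.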

Where [1] appears, read: measured here: CBR red luminescence, cell number.
Where [2] appears, read: measured here: IkBa-CBG green luminescence.

This is one part of the list. These are further read-outs of the screen, such as a control signal, another cell line or another target. No call is given for them. Most of these compounds were active or inconclusive in the main read-out, so they are no random draw. Words in brackets tell the shape of the fitted curve; partial curves, single points and poor fits give uncertain potencies.

As to `COC(=O)C1=C(c2cccc(OCc3ccccc3)c2)C[C@@H]2CC[C@H]1N2C(=O)NCc1ccc(OC)c(OC)c1`, under setting [1], the AC50 is 20.6 µM [falling, partial curve].

With `O=C(O)c1ccccc1-c1ccc(C=C2C(=O)N(c3ccccc3)C(=S)N(c3ccccc3)C2=O)o1`, the half-maximal activity concentration (AC50) under setting [1] is 14.1 µM [falling, single point].

Take `O=c1c(O)c(-c2ccc(O)c(O)c2)oc2cc(O)cc(O)c12`: the half-maximal activity concentration (AC50) under setting [1] was 35.5 µM [falling, single point].

With `Cc1cccc(-n2c(O)c(C=Nc3ccc(Br)cn3)c(=O)[nH]c2=O)c1`, the AC50 under setting [1] is 25.1 µM [falling, single point].

As to `O=C(COC(=O)Cc1ccccc1)Nc1ccc(F)cc1`, under setting [1], the AC50 is 0.355 µM [rising, full curve, poor fit].

Regarding `CC(C)(C)NC(=O)C1CC2CCCCC2CN1` (stereo not given), the AC50 under setting [1] was 3.98 µM [falling, single point].

With `CCOc1ccc(-n2c(O)c(C=NCCN(CC)CC)c(=O)[nH]c2=O)cc1`, the AC50 under setting [1] is 29.1 µM [rising, single point].

Take `CC(C)C1CC(=O)NC(SCC(=O)Nc2ccc(Br)cc2)=C1C#N` (stereo not given): the AC50 under setting [1] was 12.6 µM [falling, partial curve, poor fit].

Consider `Cc1c(/C=N/O)c2ccccc2n1C`, for which, under setting [1], the AC50 was 18.4 µM [rising, single point].

With `COC(=O)C1=C(c2ccccc2OCc2ccccc2)C[C@@H]2CC[C@H]1N2C(=O)NCc1ccccc1`, the AC50 under setting [1] is 20.6 µM [falling, single point].

Regarding `CC(C)c1ccc2oc(-c3cc(N)ccc3O)nc2c1`, the AC50 under setting [1] was 35.5 µM [falling, partial curve, poor fit].

As to `Cc1cc(C(=O)OCC(=O)Nc2c(F)cccc2F)c(C)n1C1CC1`, the AC50 under setting [1] is 0.164 µM [falling, full curve, poor fit].

Regarding `O=C(N/N=C/c1ccoc1)c1ccccc1O`, the AC50 under setting [1] is 10 µM [falling, partial curve, poor fit].

In the case of `C=Cn1ccnc1P(=S)(c1c(C)nn(-c2ccccc2)c1C)c1nccn1C=C`, the AC50 under setting [1] is 14.1 µM [falling, partial curve] and the AC50 under setting [2] is 35.5 µM [rising, partial curve, poor fit].

As for `CCOC(=O)C1CCCN(c2ccc([N+](=O)[O-])c3nonc23)C1` (stereo not given), the AC50 under setting [1] was 11.2 µM [rising, partial curve, poor fit].

Consider `COc1ccccc1N1CCN(C(=O)Oc2ccccc2)CC1`, for which, under setting [1], the AC50 was 0.82 µM [rising, full curve, poor fit].

For the compound `CN1CCN(CCOC2c3ccccc3CSc3ccc(Cl)cc32)CC1` (stereo not given), the AC50 under setting [1] is 16.4 µM [falling, single point].

Consider `Cc1c(N2C(=O)/C(=C3\C(=O)N(CC(=O)O)c4ccccc43)SC2=S)c(=O)n(-c2ccccc2)n1C`, for which the AC50 under setting [1] is 25.1 µM [falling, single point].

`CN(C)c1ccc(/C=C/c2ccc3ccccc3n2)cc1`: under setting [1], the AC50 was 6.31 µM [falling, partial curve, poor fit].

As to `COc1ccc(N(CC(=O)Nc2cccc(SC)c2)S(C)(=O)=O)cc1Cl`, the AC50 under setting [1] was 10 µM [falling, partial curve, poor fit].

On to `CCc1ccccc1NC(=O)CN1CCN(C(=O)COc2ccccc2C#N)CC1`, for which the AC50 under setting [1] is 11.6 µM [falling, partial curve].

Consider `Cc1ccc(-n2c(O)c(/C=N/N3CCOCC3)c(=O)[nH]c2=S)cc1`, for which, under setting [1], the AC50 is 1.46 µM [rising, full curve, poor fit].

In the case of `CCN(CC)C(=O)Cn1cc(/C=C2\C(=O)NC(=O)N(c3ccccc3F)C2=O)c2ccccc21`, the AC50 under setting [1] is 35.5 µM [falling, single point].

On to `CCn1nc(-c2cccs2)nc2c(=O)n(C)c(=O)nc1-2`, for which the AC50 under setting [1] is 7.08 µM [falling, full curve, poor fit].

Consider `CCCCn1c(=O)c(C=Nc2ccc(Cl)cc2)c(O)n(Cc2ccco2)c1=O`, for which the concentration at half-maximal activity (AC50) under setting [1] is 9.2 µM [falling, partial curve, poor fit].

`O=C(Nc1ccon1)c1cccn(Cc2ccccc2)c1=O`: the AC50 under setting [1] was 1.78 µM [falling, full curve].

Regarding `O=C1NC(=O)N(CC2CCCO2)C(=O)/C1=C/c1cccs1` (stereo not given), the AC50 under setting [1] was 20 µM [rising, single point].

In the case of `CCOc1cc(CNCCc2c[nH]c3ccccc23)cc(Cl)c1OCC`, the AC50 under setting [1] was 29.1 µM [falling, single point].

As to `CCCCn1c(NS(=O)(=O)c2ccccc2)c(C(=O)OCC)c2nc3ccccc3nc21`, the AC50 reads like this: under setting [1], 6.51 µM [rising, single point]; under setting [2], 3.66 µM [falling, full curve, poor fit].

For the compound `C[C@]12CCC(=O)C(O)=C1CC[C@@H]1[C@@H]2CC[C@]2(C)C(=O)CC[C@@H]12`, under setting [1], the half-maximal activity concentration (AC50) was 11.6 µM [rising, partial curve].

Consider `COc1ccc(NC(=O)CSc2nnc(C)c3ccccc23)cc1`, for which, under setting [1], the AC50 is 35.5 µM [falling, single point].

Turning to `COC(=O)c1c(C)oc2ccc(OC(=O)N3CCOCC3)cc12`, the AC50 under setting [1] is 6.31 µM [falling, partial curve, poor fit].

For `O=c1c2ccccc2nc(/C=C/c2ccc(O)cc2)n1-c1cccc(O)c1`, the half-maximal activity concentration (AC50) under setting [1] was 10 µM [falling, partial curve].

In the case of `COc1ccc(/C=C/c2nc3ccccc3c(=O)n2-c2ccc(C)cc2)cc1O`, the AC50 under setting [1] is 35.5 µM [falling, single point].

As to `COC1C(OC(=O)c2ccc(C)[nH]2)C(O)C(Oc2ccc3c(O)c(NC(=O)c4ccc(O)c(CC=C(C)C)c4)c(=O)oc3c2Cl)OC1(C)C` (stereo not given), the AC50 is, setting by setting: under setting [1], 35.5 µM [falling, single point]; under setting [2], 35.5 µM [rising, partial curve, poor fit].

For `O=C(N/N=C/c1c(O)n(Cc2ccc(F)cc2)c(=O)[nH]c1=O)c1ccccc1`, under setting [1], the AC50 was 2.82 µM [falling, full curve].

`O=C(CN1C2CCCC1CC(NC(=O)c1ccccc1)C2)Nc1ccccc1C(F)(F)F` (stereo not given): under setting [1], the AC50 is 25.1 µM [falling, single point].

On to `C[C@@H]1OC(Nc2ccc(N=Nc3ccccc3)cc2)[C@H](O)[C@H](O)[C@H]1O` (stereo not given in full), for which, under setting [1], the AC50 is 7.94 µM [falling, partial curve].

Turning to `O=c1c2ccccc2[nH]c(=S)n1-c1ccc2c(c1)OCCO2`, the AC50 under setting [1] was 28.2 µM [falling, partial curve, poor fit].

In the case of `Cc1ccc2c(c1)C1CN(C)CCC1N2C(=O)Nc1cccc(Cl)c1` (stereo not given), the AC50 under setting [1] was 3.16 µM [rising, single point].

With `COc1ccc(CCn2c(O)c(C=NCc3ccc4c(c3)OCO4)c(=O)[nH]c2=O)cc1OC`, the AC50 under setting [1] is 4.47 µM [rising, full curve, poor fit].

For the compound `O=C(COC(=O)c1cc([N+](=O)[O-])ccc1N1CCOCC1)Nc1ccc(Cl)cc1`, the AC50 under setting [1] is 35.5 µM [falling, single point].

Turning to `COc1ccc(CC2C(=O)N(c3ccccc3)C(=O)N(c3ccccc3)C2=O)c(OC)c1`, the AC50 under setting [1] was 18.4 µM [falling, single point].

`COC12C(COC(N)=O)C3=C(C(=O)C(C)=C(N)C3=O)N1CC1C2N1C` (stereo not given): the AC50 under setting [1] was 17.8 µM [rising, single point].

Consider `CCOC(=O)CC(NC(=O)C(Cc1ccc(N(CCCl)CCCl)cc1)NC(C)=O)C(=O)OCC` (stereo not given), for which, under setting [1], the AC50 was 7.08 µM [falling, full curve, poor fit].

Take `CCOc1cc2c(cc1OCC)-n1cccc1C(c1ccccc1OC)NC2` (stereo not given): the AC50 under setting [1] was 22.4 µM [falling, single point].

Consider `CC(=O)C1(c2ccccc2)CCNCC1`, for which the AC50 under setting [1] was 0.731 µM [rising, full curve, poor fit].

As for `O=C(Nc1ccc(N2CCOCC2)cc1)c1cccc2ccccc12`, the AC50 under setting [1] is 10 µM [falling, partial curve].

As to `Cc1ccc(/C(N)=N/OC(=O)CCC2CCCC2)cc1`, the concentration at half-maximal activity (AC50) under setting [1] was 11.2 µM [rising, single point].

`CCC(=NCCCn1ccnc1)c1c(O)n(-c2ccccc2)c(=O)[nH]c1=O`: the AC50 under setting [1] is 8.91 µM [falling, partial curve, poor fit].

As to `COCc1cc(OC(=O)N(C)C)nc(-c2ccc(C)c(Cl)c2)n1`, the AC50 under setting [1] was 0.112 µM [rising, full curve, poor fit].

On to `O=c1[nH]cnc2[nH]ncc12`, for which the AC50 under setting [1] was 3.98 µM [rising, partial curve, poor fit].

On to `CN(C)c1nc(-c2ccccc2)[n+](C)s1`, for which the AC50 under setting [1] is 3.16 µM [falling, partial curve].

With `CN(C)C(=O)Oc1ccc(OCc2cccc[n+]2C)cc1`, the AC50 under setting [1] was 20.6 µM [rising, partial curve, poor fit].

For `CN1C(=O)C(=Cc2ccc(SC3CCCCC3)o2)C(=O)N(C)C1=O`, the AC50 under setting [1] is 3.55 µM [falling, full curve, poor fit].

`COC(=O)C1=C(c2cccc(OCc3ccccc3)c2)C[C@@H]2CC[C@H]1N2C(=O)NC1CCN(Cc2ccccc2)CC1`: under setting [1], the AC50 was 29.1 µM [falling, single point].

Turning to `OC(c1ccccc1)(c1ccccc1)C1CN2CCC1CC2` (stereo not given), under setting [1], the AC50 was 10 µM [falling, partial curve, poor fit].

For the compound `O=C(Cn1cc(C(=O)c2ccccc2F)c2ccccc21)NCc1ccco1`, the AC50 under setting [1] was 4.11 µM [rising, full curve, poor fit].

Consider `CSc1ccc(CN2CCN(Cc3ccccc3Cl)CC2)cc1`, for which the AC50 under setting [1] is 31.6 µM [rising, single point].

Turning to `O=C1NC(=O)C(=Cc2ccc(-c3ccc(F)cc3O)o2)C(=O)N1`, the AC50 is 14.1 µM [rising, partial curve] under setting [1] and 25.1 µM [falling, single point] under setting [2].

For the compound `Cc1ccccc1CN1C(=O)CN=C(c2ccccc2)c2cc(Cl)ccc21`, the AC50 under setting [1] is 11.2 µM [falling, single point].

What is called AC50 is the concentration at which the activity in the assay is half-maximal.
